# Experimental data taken from PubChem BioAssay AID720504 (National Center for Advancing Translational Sciences (NCATS), 2013).
# Amino acid sequences for entries named in this document (tags omitted).
# UniProt P53350, whole entry, looked up: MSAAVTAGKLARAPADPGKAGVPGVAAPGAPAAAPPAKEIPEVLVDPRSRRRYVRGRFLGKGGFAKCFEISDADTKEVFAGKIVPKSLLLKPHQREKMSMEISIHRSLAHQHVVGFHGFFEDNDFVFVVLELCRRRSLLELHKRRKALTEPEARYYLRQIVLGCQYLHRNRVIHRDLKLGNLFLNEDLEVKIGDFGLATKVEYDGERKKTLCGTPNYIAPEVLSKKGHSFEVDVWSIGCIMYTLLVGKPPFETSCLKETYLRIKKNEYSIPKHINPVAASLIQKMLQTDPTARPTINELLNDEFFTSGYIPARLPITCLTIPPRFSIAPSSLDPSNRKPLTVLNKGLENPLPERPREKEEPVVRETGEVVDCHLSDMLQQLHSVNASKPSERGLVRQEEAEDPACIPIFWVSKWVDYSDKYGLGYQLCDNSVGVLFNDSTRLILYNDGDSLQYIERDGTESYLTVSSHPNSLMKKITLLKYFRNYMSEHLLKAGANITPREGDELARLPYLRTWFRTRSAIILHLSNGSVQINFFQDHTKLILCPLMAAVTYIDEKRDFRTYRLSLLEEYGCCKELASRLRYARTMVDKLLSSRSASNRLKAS
# In all, about 360,000 compounds went through this assay and about 10,000 (2.8%) were called active. Inconclusive results, whose numbers are uncertain, are shown with a selection of clear calls. Calls come from the whole dose curve; as a rule, active = well fitted inhibition curve with a large enough effect; inconclusive = small, poorly fitted or top-dose-only effect; inactive = flat fitted curve, though single readings scatter. A potency beside an inconclusive call is a rough fit, not a confirmed value.
# Molecular target: Serine/threonine-protein kinase PLK1 (Homo sapiens) (UniProt P53350)
# Assay: qHTS for Inhibitors of PLK1-PDB (polo-like kinase 1 - polo-box domain): Primary Screen; note: nearly all actives have a fitted effect of over 65% in size; for max response, negative = inhibition: series mostly up to about 57 µM
# Conditions: Plk1 PBD binding of FITC phosphopeptide, fluorescence polarization
# % is set by controls: 0 for no effect and ±100 for the full control effect; potency is the fitted concentration of half-maximal effect.
SMILES,Potency,"max response, negative = inhibition"
Cc1cc(O)ccc1Nc1nc2ccccc2nc1Nc1ccc(O)cc1C,"inconclusive: 29.9 µM [inhibitor, single point]",–
c1ccc(Nc2ccccn2)cc1,active: 23.8 µM,–
Fc1ccc(CN2CCN(c3ncccn3)CC2)c(F)c1,–,inactive: 1.09%
CC(=O)c1ccc(NC(=O)Nc2sc(NS(=O)(=O)c3ccccc3)nc2C)cc1,–,inactive: -28.3%
COc1ccc(NC(=O)C#Cc2ccccc2)cc1,"inconclusive: 29.9 µM [inhibitor, partial curve]",–
O=[N+]([O-])c1ccc(C(O)CN=Cc2ccc(O)cc2O)cc1 (centres undefined),"inconclusive: 26.7 µM [inhibitor, single point]",–
Cc1ccc(C(=S)N2CCCCCC2)cc1,"inconclusive: 23.8 µM [inhibitor, partial curve]",–
CCCOc1cccc(C(=O)N/N=C/c2coc3ccccc3c2=O)c1,"inconclusive: 21.2 µM [inhibitor, partial curve]",–
O=C(CN1C(=O)S/C(=C\C=C\c2ccccc2)C1=O)Nc1ccc(C(=O)O)cc1,"inconclusive: 26.7 µM [inhibitor, partial curve]",–
COc1cc(C(=O)O/N=C2\CCCc3c2ccc(OC)c3[N+](=O)[O-])cc(OC)c1OC,"inconclusive: 15 µM [inhibitor, partial curve]",–
COc1ccc(-c2c(=O)n(OCc3ccccn3)c3ccccc3[n+]2[O-])cc1OC,–,inactive: -9.72%
Cc1[nH]c2ccccc2c1C(=O)CSc1ccc(Cl)cc1,active: 11.9 µM,–
CC1CCCN(C(=S)Nc2ccc(Nc3ccccc3)cc2)C1 (centres undefined),"inconclusive: 42.3 µM [inhibitor, partial curve, poor fit]",–
CCCC1=C(C(=O)OCC)C(c2cc(Cl)cc(OC)c2OCC(=O)OCC)NC(=O)N1 (centres undefined),active: 29.9 µM,–
O=C(CSc1oc(-c2ccco2)nc1S(=O)(=O)c1ccc(Cl)cc1)NCC1CCCO1 (centres undefined),"inconclusive: 37.7 µM [inhibitor, single point]",–
CSc1nnc(N2C(=O)C(O)=C(C(=O)c3ccco3)C2c2cccc(Cl)c2)s1 (centres undefined),"inconclusive: 2.99 µM [inhibitor, partial curve]",–
CCN(CC)c1ccc(NC(=O)COc2ccc(C#N)cc2)cc1S(=O)(=O)Nc1ccc(OC)cc1,"inconclusive: 8.44 µM [inhibitor, partial curve]",–
Cn1c(=O)c(=O)n(C)c2cc(N3CCOCC3)c(NS(=O)(=O)c3ccc([N+](=O)[O-])cc3)cc21,active: 18.9 µM,–
CS(=O)(=O)Nc1cccc(-c2cn3c(n2)SCC3)c1,"inconclusive: 29.9 µM [inhibitor, partial curve]",–
O=C(Nc1ccccc1C(=O)O)c1ccc2ccccc2n1,"inconclusive: 26.7 µM [inhibitor, partial curve]",–
COc1ccc(C(=O)N2CCCC(O)C2)cc1OC1CCN(C(C)C)CC1 (centres undefined),–,inactive: 1.38%
COc1ccc(S(=O)(=O)N2CCCCC2)cc1,–,inactive: -2.94%
CCN(CC)S(=O)(=O)c1ccc(C)c(NC(=S)N2CCN(c3ccccn3)CC2)c1,active: 29.9 µM,–

# Individual results from the results shown:
# Potency with `COc1ccc(NC(=O)C#Cc2ccccc2)cc1` reads inconclusive: 29.9 µM [inhibitor, partial curve]
# Potency with `CCCC1=C(C(=O)OCC)C(c2cc(Cl)cc(OC)c2OCC(=O)OCC)NC(=O)N1` (centres undefined) reads active: 29.9 µM
# max response, negative = inhibition with `Fc1ccc(CN2CCN(c3ncccn3)CC2)c(F)c1` reads inactive: 1.09%
# Potency with `Cc1ccc(C(=S)N2CCCCCC2)cc1` reads inconclusive: 23.8 µM [inhibitor, partial curve]
# Potency with `O=C(Nc1ccccc1C(=O)O)c1ccc2ccccc2n1` reads inconclusive: 26.7 µM [inhibitor, partial curve]

# (continued)

SMILES,Potency,"max response, negative = inhibition"
CN(C(=O)CSc1nc2scc(-c3ccccc3)c2c(=O)[nH]1)c1ccccc1,"inconclusive: 26.7 µM [inhibitor, single point]",–
O=C(O)c1cn2c3c(ccc(Cl)c3c1=O)OCC2,"inconclusive: 7.52 µM [inhibitor, partial curve]",–
O=C(NNC(=S)Nc1cccc(C(F)(F)F)c1)c1cccc(Cl)c1,"inconclusive: 10.6 µM [inhibitor, partial curve]",–
Oc1ccc(/C=N/NC(=S)Nc2cccnc2)c(O)c1,"inconclusive: 21.2 µM [inhibitor, partial curve]",–
O=C(NCc1ccc(F)cc1)c1cccc2c1C(=O)c1ccc(N3CCOCC3)cc1S2(=O)=O,"inconclusive: 21.2 µM [inhibitor, partial curve]",–
O=C(CN1C(=O)/C(=C2/SC(=S)N(CCS(=O)(=O)O)C2=O)c2ccccc21)Nc1cccc(Br)c1,active: 26.7 µM,–
COc1ccc(/C=C(/C(=O)c2ccc(Cl)cc2Cl)n2cncn2)cc1,–,inactive: -21.8%
CC(=O)Nc1ccc(S(=O)(=O)NC2(C(F)(F)F)NC(=O)N(CC(C)C)C2=O)cc1 (centres undefined),–,inactive: -8.9%
CC1CCc2nc(NC(=O)CN3CCOCC3)sc2C1 (centres undefined),–,inactive: 1.65%
Oc1ccc(-c2cnns2)c(O)c1,"inconclusive: 23.8 µM [inhibitor, single point]",–
Cc1oc2c(cc(NS(=O)(=O)c3ccc(Cl)cc3)c3ccccc32)c1C(=O)O,"inconclusive: 29.9 µM [inhibitor, partial curve]",–
CN(C)c1cncc(C(=O)O)c1,–,inactive: 1.78%
CCC(=O)c1ccc(N2CCN(C(=O)c3ccccc3F)CC2)c(F)c1,"inconclusive: 21.2 µM [inhibitor, partial curve]",–
O=C(Oc1ccc(Br)cc1C(=S)N1CCOCC1)c1ccc(F)cc1,active: 11.9 µM,–
Cc1coc2cc3oc(=O)c(CCC(=O)NC4CC4)c(C)c3cc12,"inconclusive: 29.9 µM [inhibitor, single point]",–
COc1ccc(Nc2nc(N)nc(CN3CCOCC3)n2)cc1,"inconclusive: 29.9 µM [inhibitor, partial curve]",–
COc1ccc(NC(=O)c2cccnc2)cc1,–,inactive: -8.83%
O=C(NCc1ccccc1)c1sc(=S)n2c1[nH]c(=O)c1ccccc12,"inconclusive: 23.8 µM [inhibitor, single point]",–
COc1ccc(OC)c(-c2csc(NC(=O)c3ccc(F)cc3)n2)c1,–,inactive: -13%
Clc1cccc(CN2CCc3c([nH]c4ccccc34)C2)c1Cl,"inconclusive: 6.7 µM [inhibitor, partial curve]",–
Cc1ccccc1C(=O)NC(=S)Nc1ccccc1N1CCCC1,"inconclusive: 29.9 µM [inhibitor, partial curve]",–
COCCCNC(=O)C[C@H]1C[C@H](C(=O)N2CCOCC2)[C@@]2(C)c3[nH]c4cc(CCC(=O)N(C)C)ccc4c3CCN2C1=O,–,inconclusive: -30.4% [inhibitor]
N#Cc1c(NC(=O)C2CC(Cl)=CCC2C(=O)O)sc2c1CCCCC2 (centres undefined),"inconclusive: 29.9 µM [inhibitor, single point]",–

SMILES,Potency,"max response, negative = inhibition"
COc1ccccc1/C=C1\CCCC2=C1Nc1nnnn1C2c1ccccc1OC (centres undefined),"inconclusive: 21.2 µM [inhibitor, partial curve]",–
Cc1cc(C)cc(C(=O)NC(CC(N)=O)c2ccc(NC3CCCCCCC3)c([N+](=O)[O-])c2)c1 (centres undefined),–,inactive: 11.3%
Cc1nc(NS(=O)(=O)c2ccccc2)sc1NC(=O)Nc1ccc(Cl)cc1,"inconclusive: 26.7 µM [inhibitor, partial curve]",–
CCOC(=O)c1c(NC(=O)OC)sc(C(=O)N(C)C)c1C,"inconclusive: 26.7 µM [inhibitor, partial curve]",–
O=C(c1ccccc1)N1N=C(c2ccco2)CC1c1cccs1 (centres undefined),active: 21.2 µM,–
CC1CCCCC12NC(=O)N(CC(=O)N1CCc3ccccc3C1)C2=O (centres undefined),–,inactive: -2.96%
CCC(Oc1ccccc1)C(=O)O/N=C(\N)c1ccc(OC)c(OC)c1 (centres undefined),"inconclusive: 29.9 µM [inhibitor, single point]",–
[O-][n+]1onc2c1CCc1c-2nn(-c2ccccc2Cl)[n+]1[O-],–,inactive: -8.39%
Cc1ccc(C2SCC(=O)N2c2ccccc2)cc1 (centres undefined),"inconclusive: 23.8 µM [inhibitor, partial curve]",–
CCC(Sc1nc2ccsc2c(=O)n1Cc1ccc(C(=O)O)cc1)C(=O)Nc1ccc(C)c(Cl)c1 (centres undefined),"inconclusive: 37.7 µM [inhibitor, single point]",–
CCOc1ccc(/C=C2\SC(=S)N(C(C(=O)O)c3ccccc3)C2=O)cc1OC (centres undefined),"inconclusive: 23.8 µM [inhibitor, single point]",–
Cc1noc(C)c1NC(=O)N1CCN(Cc2ccccc2)CC1,"inconclusive: 29.9 µM [inhibitor, single point]",–
CCCc1cc(C(N)=O)c(NC(=O)c2ccoc2C)s1,active: 29.9 µM,–
CCOc1ccc(N2C(=O)C3Sc4[nH]c(=O)sc4C(/C=C/c4ccccc4)C3C2=O)cc1 (centres undefined),"inconclusive: 29.9 µM [inhibitor, partial curve]",–
COc1cccc(CC(NC(C)=O)C(=O)NC2CCN(C(=O)C3CCCCC3)CC2)c1OC (centres undefined),"inconclusive: 37.7 µM [inhibitor, single point]",–
C/C=C\C=C\C(=O)N1CC2(CC(c3cccc(NC(=O)CC(c4ccccc4)c4ccccc4)c3)=NO2)C[C@H]1C(N)=O (some centres undefined),active: 33.6 µM,–
O=C(Cn1nc(-c2ccccc2)c2ccccc2c1=O)Nc1cccc(O)c1,"inconclusive: 23.8 µM [inhibitor, single point]",–
CN1CCN(CC(=O)Nc2ccc(S(=O)(=O)N(C)C)cc2)CC1,–,inactive: 1.35%
CCN(CC(=O)Nc1ccccc1OC)C(=O)c1cc(-c2ccccc2)nn1-c1ccccc1,–,inactive: -3.19%
Cc1cccc(NC(=O)CSc2cccc3cccnc23)c1C,"inconclusive: 16.8 µM [inhibitor, partial curve]",–
O=C(COc1ccc2c(c1)OCO2)Nc1nnc(Cc2ccccc2)s1,active: 23.8 µM,–
O=C(CSc1nn(-c2ccccc2)c(=S)s1)NC(=O)NCc1ccco1,–,inactive: -9.82%
CC(=O)C1C(=O)c2c(cccc2[N+](=O)[O-])C1=Nc1ccc(S(N)(=O)=O)cc1 (centres undefined),"inconclusive: 13.4 µM [inhibitor, partial curve]",–
